Test results from US20090131494A1, “Non-Nucleoside Reverse Transcriptase Inhibitors” (priority 2005, published 2009).
Read-outs that look alike come from different tables or passages of the source. Some entries share one result that the patent states for a list of compounds.

Legend:
[1] = molecular target: HIV-1 RT enzyme (Human immunodeficiency virus type 1 group M subtype B, UniProt P04585); details: read-out: IC50, inhibition of HIV reverse transcriptase, wild type
[2] = molecular target: T1, mutant HIV reverse transcriptase, Y181C mutation (Human immunodeficiency virus type 1 group M subtype B, UniProt P04585, Y768C); experiment: Analogous RT inhibition assay, Y181C mutant; assay type: biochemical
T1 construct: made in house

[3] = read-out: IC50 in the Y181C mutant assay; RT with Y181C mutation

## CCOC(=O)C1(S(=O)(=O)c2c(C(N)=O)[nH]c3ccc(Cl)cc23)CCC1 [Example 36, ethyl 1-{[2-(aminocarbonyl)-5-chloro-1H-indol-3-yl]sulfonyl}cyclobutanecarboxylate]
[1]
  IC50: < 10 µM

## CC(C)CCS(=O)(=O)c1c(C(=O)NCc2nccn2C)[nH]c2ccc(Cl)cc12 [Example 39, 5-Chloro-3-[(3-methylbutyl)sulfonyl]-N-[(1-methyl-1H-imidazol-2-yl)methyl]-1-indole-2-carboxamid-indole-2-carboxamide]
[1]
  IC50: < 10 µM

## CCOC(=O)c1[nH]c2ccc(Cl)cc2c1SCCCC(F)(F)F [Example 4, ethyl 5-chloro-3-[(4,4,4-trifluorobutyl)thio]-1H-indole-2-carboxylate]
[1]
  IC50: < 10 µM

## CCOC(=O)c1[nH]c2ccc(Cl)cc2c1S(=O)(=O)C1CCCC1 [Example 20, ethyl 5-chloro-3-(cyclopentylsulfonyl)-1H-indole-2-carboxylate]
[1]
  IC50: < 10 µM

## CCOC(=O)c1[nH]c2ccc(Cl)cc2c1SC1CCCC1 [Example 10, ethyl 5-chloro-3-(cyclopentylthio)-1H-indole-2-carboxylate]
[2]; [3]
  IC50: < 2000 nM
[1]
  IC50: < 10 µM

## COC(=O)C1(S(=O)(=O)c2c(C(N)=O)[nH]c3ccc(Cl)cc23)CCC1 [Example 35, methyl 1-{[2-(aminocarbonyl)-5-chloro-1H-indol-3-yl]sulfonyl}cyclobutanecarboxylate]
[1]
  IC50: < 10 µM

## CCOC(=O)c1[nH]c2ccc(Cl)cc2c1SC1CC1 [Example 6, ethyl 5-chloro-3-(cyclopropylthio)-1H-indole-2-carboxylate]
[1]
  IC50: < 10 µM

## NC(=O)c1[nH]c2ccc(Cl)cc2c1S(=O)(=O)C1CC1 [Example 26, 5-chloro-3-(cyclopropylsulfonyl)-1H-indole-2-carboxamide]
[1]
  IC50: < 10 µM

## NC(=O)c1[nH]c2ccc(Cl)cc2c1S(=O)(=O)CC1CCCCC1 [Example 33, 5-chloro-3-[(cyclohexylmethyl)sulfonyl]-1H-indole-2-carboxamide]
[1]
  IC50: < 10 µM

## CCOC(=O)c1[nH]c2ccc(Cl)cc2c1S(=O)(=O)CCCC(F)(F)F [Example 15, ethyl 5-chloro-3-[(4,4,4,-trifluorobutyl)sulfonyl]-1H-indole-2-carboxylate]
[1]
  IC50: < 10 µM

## NC(=O)c1[nH]c2ccc(Cl)cc2c1S(=O)(=O)CCC(F)(F)F [Example 24, 5-chloro-3-[(3,3,3-trifluoropropyl)sulfonyl]-1H-indole-2-carboxamide]
[2]; [3]
  IC50: < 2000 nM
[1]
  IC50: < 10 µM

## NC(=O)c1[nH]c2ccc(Cl)cc2c1S(=O)(=O)CC(F)(F)C(F)F [Example 38, 5-chloro-3-[(2,2,3,3-tetrafluoropropyl)sulfonyl]-1H-indole-2-carboxamide]
[1]
  IC50: < 10 µM

## CCOC(=O)c1[nH]c2ccc(Cl)cc2c1S(=O)(=O)CC1CCC1 [Example 13, Ethyl 5-chloro-3-(cyclobutylmethylsulfonyl)-1H-indole-2-carboxylate]
[1]
  IC50: < 10 µM

## CCOC(=O)c1[nH]c2ccc(Cl)cc2c1SCCC(F)(F)F [Example 3, ethyl 5-chloro-3-[(3,3,3-trifluoropropyl)thio]-1H-indole-2-carboxylate]
[1]
  IC50: < 10 µM

## NC(=O)c1[nH]c2ccc(Cl)cc2c1S(=O)(=O)CC1CC1 [Example 27, 5-chloro-3-[(cyclopropylmethyl)sulfonyl]-1H-indole-2-carboxamide]
[2]; [3]
  IC50: < 2000 nM
[1]
  IC50: < 10 µM

## CCOC(=O)c1[nH]c2ccc(Cl)cc2c1SCC1CCC1 [Example 1, Ethyl 5-chloro-3-(cyclobutylmethylthio)-1H-indole-2-carboxylate]
[2]; RT with Y181C mutation; read-out: IC50 in the Y181C mutant assay
  IC50: < 2000 nM
[1]
  IC50: < 10 µM

## CCOC(=O)c1[nH]c2ccc(Cl)cc2c1S(=O)(=O)C1CC1 [Example 16, ethyl 5-chloro-3-(cyclopropylsulfonyl)-1H-indole-2-carboxylate]
[1]
  IC50: < 10 µM

## NC(=O)c1[nH]c2ccc(Cl)cc2c1S(=O)(=O)C1CCCC1 [Example 30, 5-chloro-3-(cyclopentylsulfonyl)-1H-indole-2-carboxamide]
[2]; [3]
  IC50: < 2000 nM
[1]
  IC50: < 10 µM

## CCOC(=O)c1[nH]c2ccc(Cl)cc2c1S(=O)(=O)CC1CCCCC1 [Example 22, ethyl 5-chloro-3-[(cyclohexylmethyl)sulfonyl]-1H-indole-2-carboxylate]
[1]
  IC50: < 10 µM

## CC(C)CCS(=O)(=O)c1c(C(=O)NCc2n[nH]c3ccccc23)[nH]c2ccc(Cl)cc12 [Example 40, 5-Chloro-N-(1H-indazol-3-ylmethyl)-3-[(3-methylbutyl)sulfonyl]-1H-indole-2-carboxamide]
[1]
  IC50: < 10 µM

## NC(=O)c1[nH]c2ccc(Cl)cc2c1S(=O)(=O)C1CCCCC1 [Example 31, 5-chloro-3-(cyclohexylsulfonyl)-1H-indole-2-carboxamide]
[2]; [3]
  IC50: < 2000 nM
[1]
  IC50: < 10 µM

## NC(=O)c1[nH]c2ccc(Cl)cc2c1S(=O)(=O)CCCC(F)(F)F [Example 25, 5-chloro-3-[(4,4,4-trifluorobutyl)sulfonyl]-1H-indole-2-carboxamide]
[1]
  IC50: < 10 µM

## NC(=O)c1[nH]c2ccc(Cl)cc2c1S(=O)(=O)CC1CCC1 [Example 23, 5-Chloro-3-(cyclobutylmethylsulfonyl)-1H-indole-2-carboxamide]
[1]
  IC50: < 10 µM

## CCOC(=O)c1[nH]c2ccc(Cl)cc2c1SCC(F)(F)F [Example 2, ethyl 5-chloro-3-[(2,2,2-trifluoroethyl)thio]-1H-indole-2-carboxylate]
[1]
  IC50: < 10 µM

## CCOC(=O)c1[nH]c2ccc(Cl)cc2c1S(=O)(=O)C1CCCCC1 [Example 21, ethyl 5-chloro-3-(cyclohexylsulfonyl)-1H-indole-2-carboxylate]
[1]
  IC50: < 10 µM

## CCOC(=O)c1[nH]c2ccc(Cl)cc2c1S(=O)(=O)CC1CC1 [Example 17, ethyl 5-chloro-3-[(cyclopropylmethyl)sulfonyl]-1H-indole-2-carboxylate]
[1]
  IC50: < 10 µM

## NC(=O)c1[nH]c2ccc(Cl)cc2c1S(=O)(=O)CCC1CC1 [Example 28, 5-chloro-3-[(2-cyclopropylethyl)sulfonyl]-1H-indole-2-carboxamide]
[2]; [3]
  IC50: < 2000 nM
[1]
  IC50: < 10 µM

## CCOC(=O)c1[nH]c2ccc(Cl)cc2c1SCC1CCCCC1 [Example 11, ethyl 5-chloro-3-[(cyclohexylmethyl)thio]-1H-indole-2-carboxylate]
[1]
  IC50: < 10 µM

## NC(=O)c1[nH]c2ccc(Cl)cc2c1S(=O)(=O)C1C=CCCC1 (centres unmarked) [Example 32, 5-chloro-3-(cyclohex-2-en-1-ylsulfonyl)-1H-indole-2-carboxamide]
[1]
  IC50: < 10 µM

## CCOC(=O)c1[nH]c2ccc(Cl)cc2c1S(=O)(=O)CCC(F)(F)F [Example 14, ethyl 5-chloro-3-[(3,3,3-trifluoropropyl)sulfonyl]-1H-indole-2-carboxylate]
[1]
  IC50: < 10 µM

## CC(CC(F)(F)F)S(=O)(=O)c1c(C(N)=O)[nH]c2ccc(Cl)cc12 (centres unmarked) [Example 34, 5-chloro-3-[(3,3,3-trifluoro-1-methylpropyl)sulfonyl]-1H-indole-2-carboxamide]
[1]
  IC50: < 10 µM

## CCOC(=O)c1[nH]c2ccc(Cl)cc2c1SCCC1CC1 [Example 8, ethyl 5-chloro-3-[(2-cyclopropylethyl)thio]-1H-indole-2-carboxylate]
[2]; [3]
  IC50: < 2000 nM
[1]
  IC50: < 10 µM

## CCOC(=O)c1[nH]c2ccc(Cl)cc2c1SCC(F)(F)C(F)(F)F [Example 5, ethyl 5-chloro-3-[(2,2,3,3,3-pentafluoropropyl)thio]-1H-indole-2-carboxylate]
[1]
  IC50: < 10 µM

## NC(=O)c1[nH]c2ccc(Cl)cc2c1S(=O)(=O)CC1CC(F)(F)C1(F)F (centres unmarked) [Example 37]
[1]
  IC50: < 10 µM

## CCOC(=O)c1[nH]c2ccc(Cl)cc2c1SC1CCCCC1 [Example 12, Ethyl 5-chloro-3-(cyclohexylthio)-1H-indole-2-carboxylate]
[1]
  IC50: < 10 µM

## CCOC(=O)c1[nH]c2ccc(Cl)cc2c1S(=O)(=O)CCC1CC1 [Example 18, ethyl 5-chloro-3-[(2-cyclopropylethyl)sulfonyl]-1H-indole-2-carboxylate]
[1]
  IC50: < 10 µM
